{"source": "patent US20230309840A1", "about": "“TARGETING ABNORMAL CELL POPULATIONS FOR APOPTOSIS” (priority 2020, published 2023)", "origin": "cited, not measured here", "tested_on": "cancer cell lines", "note": "At least one structure is not confirmed: it was looked up by name or label, or the drawing left a doubt."}
{"smiles": "C[C@H]1[C@@H](O)O[C@@H]2O[C@@]3(C)CC[C@H]4[C@H](C)CC[C@@H]1[C@@]24OO3", "note": "[dihydroartemisinin (DHA), dihydroartemisinin]", "values": [{"measurement": "effect on cancer cell lines", "result": "antineoplastic effects"}]}
